These are yes or no findings as the source states them, for the method shown. Binding seen in cells or lysates may run through a third protein. A result given as binding can be weak or reduced; the word gives no strength. Sequences can lack the tags named with a protein.
B1: GST-Hmgb1a (protein, UniProt Q6NX86 1-205)
chain: MGKDPTKPRGKMSSYAYFVQTCREEHKKKHPEATVNFSEFSKKCSERWKTMSAKEKGKFEDMAKLDKARYEREMKNYIPPKGEKKKRFKDPNAPKRPPSAFFIFCSEFRPKVKEETPGLSIGDVAKRLGEMWNKISSEEKQPYEKKAAKLKEKYEKDIAAYRSKGKVGGGAAKAPSKPDKANDEDEDDDEEEDEDDDDEEEEDDE
B2: GST-Sdcbp (protein, UniProt F1QFG9 1-307)
chain: MSLYPSLEDMKVDKFIQAHNTPTASPSKALPLPEPSSDQNEPSTYYDSKAEQTGTSSRLYPELNEFMGLNLSSDALQTFSSSIADQTAGALSVCTSGMSWAAAPITGSDLGVKRAEIRQGVREVVLCKDMDGKIGLRLKAIDNGVFVQLVQANTAAALAGLRFGDQILEINGKSCAGWNSDYAHKVLKNSNPERITLAVRDRPLERTVTLHKDMNGQLGFIFRKGRITSIVKDSSSARNGLLTDHQICEINGQNIIGLKDTQIMDILNSSGGVVTITVMPVVIFEHMMKRMSSSIVKSLMDHSIPEV
B3: GST-Oaz1a (protein, UniProt Q9YI98 1-214)
chain: MVKSNLQTILNSHCFVREKESNIPKMPVIELTRNKPESESSHRCSNPCPGPLWCSDVPLPPLKIPGGRGNDQRDHSLSAKLFYSDAQLLVLEEAPQSNSRVRFLLFERRCSVSKHLVWRGALKGTNLYIEIPTGVLPEGSKDSFSLLLEFAEEKLQVDHVFICFHKSRDDRASLLRTFSFMGFEIVRPGHPLVPTRPDAFFMAYRIERDSDGDE

These binders were tested against full-length FLAG-Hmx3a (zebrafish) (assay: co-IP; 5 µg purified GST-fusion incubated 30 min at room temperature with lysate of zebrafish embryos expressing a FLAG-Hmx3a construct in 500 µl 50 mM Tris pH 8.0, 150 mM NaCl, 1 mM EDTA, 1% Triton X-100; anti-FLAG on Protein G Dynabeads overnight at 4 °C, 4 washes; blots for GST and FLAG; uninjected lysate as control; only the binder purified).

Row | Binder | binding
1 | B1 | binds
2 | B2 | no binding (tested: 5 µg GST-fusion in 500 µl)
3 | B3 | no binding (tested: 5 µg GST-fusion in 500 µl)

Reference: article PMC9859826
